Test results reported in patent publication US20220160802A1, “METHODS AND COMPOSITIONS FOR PROMOTING HEALTH IN A SUBJECT” (COMMONWEALTH SCIENTIFIC AND INDUSTRIAL RESEARCH ORGANISATION, priority 2019, published 2022).

Assay: Untargeted LC-MS metabolite analysis of fermented and non-fermented broccoli puree
Conditions: fermented vs non-fermented broccoli puree

Molecule | FC
2-carboxy-L-threo-pentonate | 2.0447
C/C(=C\CNc1ncnc2c1ncn2[C@@H]1O[C@H](CO)[C@@H](O)[C@H]1O)CO (relative stereo) [trans-zeatin riboside] | 0.4045
O=C(/C=C/c1ccc(O)c(O)c1)O[C@@H]1[C@H](O)C[C@@](O)(C(=O)O)C[C@H]1OC(=O)/C=C/c1ccc(O)c(O)c1 (stereo in doubt) [3,4-Dicaffeoylquinic acid] | 2.7368
CSCCCCCCCC=[N+]([O-])O [1-aci-nitro-8-methylsulfanyloctane] | 8.8356
Nc1nc(NC2O[C@H](COP(=O)(O)O)[C@@H](O)[C@H]2O)c(N)c(=O)[nH]1 (stereo partly drawn) [2,5-diamino-6-5-phospho-D-ribosylaminopyrimidin-43H-one] | 0.3594
CCCC(C/C(=C/C(=O)O)C(=O)O)SC (stereo not shown) [2-2′-methylthiopentylmaleate] | 14.621
CSCCCCC(O)(CC(=O)O)C(=O)O (stereo not shown) [2-4′-methylthiobutylmalate] | 0.4362
CSCCCCCCCC(O)(CC(=O)O)C(=O)O (stereo not shown) [2-7′-methylthioheptylmalate] | 0.1968
O=C(O)c1ccccc1O [2-Hydroxybenzoic acid] | 2.1338
C=C(N)C(=O)O [2-aminoprop-2-enoate] | 2.0003
O=C(O)[C@@](O)(COP(=O)(O)O)[C@H](O)[C@H](O)CO [2-carboxy-D-arabinitol 1-phosphate] | 41.06
CC1=CC(=O)CC(C)(C)C1(O)/C=C/C(C)=C\C(=O)O (stereo not drawn) [2-cis-abscisate] | 76.81
CSCCC(=O)C(O)=COP(=O)(O)O [2-hydroxy-5-methylthio-3-oxopent-1-enyl 1-phosphate] | 13.56
C/C(=C\Cc1cc(O)cc(C)c1O)CCCC(C)CCCC(C)CCCC(C)C (stereo not shown) [2-methyl-6-phytyl-1,4-benzoquinol] | 3.3442
O=C(O)CC(=O)OC[C@H]1OC(Oc2ccc3ccccc3c2)[C@H](O)[C@@H](O)[C@@H]1O (stereo partly shown) [2-naphthol 6′-O-malonylglucoside] | 0.3064
Oc1ccc2ccccc2c1 [2-naphthol] | 3.6366
O=C(O)[C@@H](CO)OP(=O)(O)O [2-phospho-D-glycerate] | 5.0613
O=C1C[C@@H](c2ccc(O)cc2)Oc2cc(O)cc(O)c21 [2S-naringenin] | 0.3035
COc1cc(/C=C/C(=O)OC2CC(O)(C(=O)O)CC(O)C2OC(=O)/C=C/c2ccc(O)c(OC)c2)ccc1O (stereo not shown) [3,4-Diferuloylquinic acid] | 5.2839
COc1cc(/C=C/C(=O)O[C@@H]2C[C@@](O)(C(=O)O)C[C@@H](O)[C@@H]2O)ccc1O [3-Feruloylquinic acid] | 3.3496
COc1ccc(-c2oc3c(OC)c(OC)c(OC)c(OC)c3c(=O)c2OC)cc1OC [3-Methoxynobiletin] | 8.9717
COc1ccc(-c2oc3cc(OC)c(OC)c(OC)c3c(=O)c2OC)cc1OC [3-Methoxysinensetin] | 2.4046
CC(C)[C@H](C)[C@@H](O)[C@H](O)[C@@H](C)[C@H]1CC[C@H]2[C@@H]3CC(=O)[C@H]4CC(=O)CC[C@]4(C)[C@H]3CC[C@]12C [3-dehydroteasterone] | 8.985

Molecule | FC
O=C(O)[C@@]1(O)C[C@@H](O)[C@@H](O)[C@@H]([C@H](O)CO)O1 [3-deoxy-alpha-D-manno-octulosonate] | 6.6012
CSCCCCC(C(=O)C(=O)O)C(C)C (stereo not shown) [3-isopropyl-7-methylthio-2-oxoheptanoate] | 0.3029
C=C1C(=O)O[C@@H]2[C@H]3O[C@]3(C)[C@@H](O)C/C=C(\C)CC[C@@H]12 [3beta-hydroxyparthenolide] | 8.1691
O=c1cc(O)c2ccccc2o1 [4-Hydroxycoumarin] | 0.4821
O=C(O)/C=C/C(=O)CC(=O)CC(=O)O [4-fumaryl-acetoacetate] | 5.0298
CC(C)CC(=O)C(=O)O [4-methyl-2-oxopentanoate] | 3.906
CSCCCC/C(=N/OS(=O)(=O)O)S[C@@H]1O[C@H](CO)[C@@H](O)[C@H](O)[C@H]1O [4-methylthiobutyl glucosinolate] | 14.183
Cc1cc(=O)oc2cc(O[C@@H]3O[C@H](COC(=O)CC(=O)O)[C@@H](O)[C@H](O)[C@H]3O)ccc12 [4-methylumbelliferone 6′-O-malonylglucoside] | 30.436
C=C(CC[C@@H](C)[C@H]1CC[C@@]2(C)[C@@H]3CC[C@H]4[C@](C)(C=O)[C@@H](O)CC[C@@]45C[C@@]35CC[C@]12C)C(C)C [4alpha-formyl,4beta,14alpha-dimethyl-9beta,19-cyclo-5alpha-ergost-24241-en-3beta-ol] | 18.8
C/C=C(/CC[C@@H](C)[C@H]1CC[C@H]2C3=CC[C@H]4[C@H](C=O)[C@@H](O)CC[C@]4(C)[C@H]3CC[C@]12C)C(C)C [4alpha-formyl-stigmasta-7,24241-dien-3beta-ol] | 58.691
CC(C)(COP(=O)(O)O)[C@@H](O)C(=O)NCCC(=O)NCCS [4′-phosphopantetheine] | 11.775
O=C(O)c1cc2cc(O)c(O)cc2[nH]1 [5,6-dihydroxyindole-2-carboxylate] | 5.2663
NC(=O)c1ncn(C2O[C@H](COP(=O)(O)O)[C@@H](O)[C@H]2O)c1NC=O (stereo partly drawn) [5-formamido-1-5-phospho-D-ribosyl-imidazole-4-carboxamide] | 30.585
Nc1nc(=O)n([C@@H]2O[C@H](COP(=O)(O)O)[C@@H](O)[C@H]2O)cc1O [5-hydroxy-CMP] | 25.864
CSCCCCCC(S)=NO [5-methylthiopentyl-thiohydroximate] | 0.302
CSCCCCCC(=NOS(=O)(=O)O)S[C@@H]1O[C@H](CO)[C@@H](O)[C@H](O)[C@H]1O [5-methylthiopentylglucosinolate] | 59.335
CC(O)[C@@H](O)[C@@H](O)C(=S)COP(=O)(O)O (stereo partly shown) [5-methylthioribulose 1-phosphate] | 46.001
O=P(O)(O)OC[C@H]1O[C@H](OP(=O)(O)OP(=O)(O)O)[C@H](O)[C@@H]1O [5-phospho-alpha-D-ribose 1-diphosphate] | 0.4783
N[C@@H]1O[C@H](COP(=O)(O)O)[C@@H](O)[C@H]1O [5-phospho-beta-D-ribosylamine] | 10.643
Nc1c(C(=O)N[C@@H](CC(=O)O)C(=O)O)ncn1[C@@H]1O[C@H](COP(=O)(O)O)[C@@H](O)[C@H]1O [5′-phosphoribosyl-4-N-succinocarboxamide-5-aminoimidazole] | 0.4281
C[C@@H]1O[C@@H](Oc2cc3oc(-c4ccc(O)c(O)c4)cc(=O)c3c(O)c2O)[C@H](O)[C@H](O)[C@H]1O [6-Hydroxyluteolin 7-O-rhamnoside] | 2.142
COc1cc2c(cc1O)C(Cc1ccc(O)c(O)c1)NCC2 (stereo not shown) [6-O-methylnorlaudanosoline] | 0.05573
CSCCCCCCC(S)=NO [6-methylthiohexyl-thiohydroximate] | 5.5473

Molecule | FC
O=C1O[C@H](COP(=O)(O)O)[C@@H](O)[C@H](O)[C@H]1O [6-phospho D-glucono-1,5-lactone] | 5.8171
CC(C)[C@H](C)[C@@H](O)[C@H](O)[C@@H](C)[C@H]1CC[C@H]2[C@@H]3C[C@H](O)[C@H]4C[C@H](O)[C@H](O)C[C@]4(C)[C@H]3CC[C@]12C [6alpha-hydroxy-castasterone] | 3.7782
CC(=O)OC[C@H]1O[C@@H](Oc2ccc3c(=O)c(-c4ccc(O)cc4)coc3c2)[C@H](O)[C@@H](O)[C@@H]1O [6″-O-Acetyldaidzin] | 0.158
COc1cc2c(=O)c(-c3ccc(O)cc3)coc2cc1O[C@@H]1O[C@H](COC(=O)CC(=O)O)[C@@H](O)[C@H](O)[C@H]1O [6″-O-Malonylglycitin] | 0.1674
COc1cc(C[C@H]2C(=O)OC[C@@H]2[C@H](O)c2ccc(O)c(OC)c2)ccc1O [7-Hydroxymatairesinol] | 2.0626
CSCCCCCCCC(=NOS(=O)(=O)O)S[C@@H]1O[C@H](CO)[C@@H](O)[C@H](O)[C@H]1O [7-methylthioheptyl glucosinolate] | 0.4242
C[S+]([O-])CCCCCCCCC(=NOS(=O)(=O)O)S[C@@H]1O[C@H](CO)[C@@H](O)[C@H](O)[C@H]1O (stereo partly shown) [8-methylsulfinyloctyl glucosinolate] | 0.1694
CSCCCCCCCCC(S)=NO [8-methylthiooctyl-thiohydroximate] | 0.2826
Nc1nc2c([nH]c(=O)n2[C@@H]2O[C@H](COP(=O)(O)O)[C@@H](O)[C@H]2O)c(=O)[nH]1 [8-oxo-GMP] | 9.8883
CSCCCCCCCCCC(S)=NO [9-methylthiononyl-thiohydroximate] | 15.416
CSCCCCCCCCC(=O)C(=O)O [10-methylthio-2-oxodecanoate] | 4.5655
O=C(O)CCCCCCCCCCCCCCCCCO [18-hydroxystearate] | 0.1452
CC(C)[C@@H](C)[C@@H](O)[C@H](O)[C@@H](C)[C@H]1CC[C@H]2[C@@H]3CC=C4C[C@@H](O)CC[C@]4(C)[C@H]3CC[C@]12C [22R,23R-22,23-dihydroxycampesterol] | 2.0564
CC(C)[C@H](C)C[C@H](O)[C@@H](C)[C@H]1CC[C@H]2[C@@H]3CCC4=CC(=O)CC[C@]4(C)[C@H]3CC[C@]12C [22alpha-hydroxy-campest-4-en-3-one] | 0.3267
C[C@H](CCC=C1CC1)[C@H]1CC[C@H]2C3=C(CC[C@]12C)[C@@]1(C)CC[C@H](O)C[C@@H]1CC3 [26,27-dehydrozymosterol] | 14.846
Nc1ncnc2c1ncn2[C@@H]1O[C@H](COP(=O)(O)O)[C@@H](O)[C@H]1O [AMP] | 2.1939
COc1cc(C[C@H]2COC[C@@H]2Cc2ccc(O)c(OC)c2)ccc1O [Anhydro-secoisolariciresinol] | 2.3975
O=C(O)CC(=O)OC[C@H]1O[C@@H](Oc2cc(O)c3c(=O)cc(-c4ccc(O)cc4)oc3c2)[C@H](O[C@@H]2OCC(O)(CO)[C@H]2O)[C@@H](O)[C@@H]1O (stereo partly shown) [Apigenin 7-O-6″-malonyl-apiosyl-glucoside] | 0.3809
O=C(O)c1ccccc1 [Benzoic acid] | 4670.1
COc1ccc(-c2coc3cc(O)cc(O)c3c2=O)cc1 [Biochanin A] | 2.1017
C[N+](C)(C)CCOP(=O)(O)OP(=O)([O-])OC[C@H]1O[C@@H](n2ccc(N)nc2=O)[C@H](O)[C@@H]1O [CDP-choline] | 617.84
